Experimental data published in the supplement of paper PMC7877785.
± gives the uncertainty stated by the source. Many entries were measured with a wide error.

Test: self-splicing fitness, log relative to wild type (ln ratio); higher = more splicing; Tetrahymena group I intron in knt gene, E. coli kanamycin selection, DiMSum; sequences stand for … in CUCUCU…GGAGGGAAAAGUUAUCAGGCAUGCACCUGGUAGCUAGUCUUUAAACCAAUAGAUUGCAUCGGUUUAAAAGGCAAGACCGUCAAAUUGCGGGAAAGGGGUCAACAGCCGUUCAGUACCAAGUCUCAGGGGAAACUUUGAGAUGGCCUUGCAAAGGGUAUGGUAAUAAGCUGACGGACAUGGUCCUAACCACGCAGCCAAGUCCUAAGUCAACAGAUCUUCUGUUGAUAUGGAUGCAGUUCACAGACUAAAUGUCGGUCGGGGAAGAUGUAUUCUUCUCAUAAGAUAUAGUCGGACCUCUCCUUAAUGGGAGCUAGCGGAUGAAGUGAUGCAACACUGGAGCCGCUGGGAACUAAUUUGUAUGCGAAAGUAUAUUGAUUAGUUUUGGAGUACUCGUGGUCG
Procedure, shortened: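 Fitness was computed with DiMSum as the error-weighted combination of replicate fold changes, kanamycin versus none, each normalised to wild type. The library randomised all eight intron nucleotides of the P1ex region, with the intron placed in the knt kanamycin-resistance gene on pET-22b(+) in E. coli BL21(DE3). Six replicate transformations were grown overnight at 37°C or 30°C on LB agar with or without 25 μg/mL kanamycin, plus 100 μg/mL carbenicillin, 50 μM IPTG and 0.2% rhamnose. Pooled colonies were amplicon-sequenced on an Illumina HiSeq 2500.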

| Sequence | self-splicing fitness (ln) (37 °C) | self-splicing fitness (ln) (30 °C) |
| --- | --- | --- |
| GAUGAGCAAUAUUACGACAG | -2.35 ± 0.76 |  |
| UCAAAGCAAUAUUACGGUCC | -2.73 ± 0.61 | -1.82 ± 0.53 |
| UGAGAGCAAUAUUACGGCUU | -4.18 ± 1 |  |
| GGGUAGCAAUAUUACGUCCC | -2.54 ± 0.54 |  |
| AUCUAGCAAUAUUACGAGGC |  | -4.65 ± 0.52 |
| UCAGAGCAAUAUUACGCGCA | -1.69 ± 0.29 | -1.19 ± 0.2 |
| AGAGAGCAAUAUUACGCUUC | -1.57 ± 0.6 | -3.91 ± 0.53 |
| GUAUAGCAAUAUUACGAUAC | -2.34 ± 0.65 | -3.32 ± 0.74 |
| AUCGAGCAAUAUUACGCUUC |  | -4.48 ± 0.51 |
| CGCAAGCAAUAUUACGCAAU | -2.14 ± 0.26 | -2.94 ± 0.21 |
| ACCUAGCAAUAUUACGGCAA | 0.02 ± 0.14 | -1.41 ± 0.17 |
| AAUGAGCAAUAUUACGAUGC | -1.96 ± 0.69 |  |
| CACUAGCAAUAUUACGGCAG | 0.189 ± 0.066 | -0.257 ± 0.049 |
| UUCUAGCAAUAUUACGAACA |  | -0.853 ± 0.58 |
| GAUUAGCAAUAUUACGCAGC | -1.28 ± 0.55 |  |
| CUCAAGCAAUAUUACGAUAC | -2.02 ± 0.56 |  |
| GUCGAGCAAUAUUACGGGGG | -1.85 ± 0.61 |  |
| UUCCAGCAAUAUUACGAUGG | -4.67 ± 0.72 |  |
| AGGGAGCAAUAUUACGACGA | -1.5 ± 0.53 | -3.62 ± 0.55 |
| ACAGAGCAAUAUUACGUACA | -2.15 ± 0.56 | -4.02 ± 0.59 |
| CUGCAGCAAUAUUACGUCAU | -2.06 ± 0.13 | -2.86 ± 0.14 |
| UGAGAGCAAUAUUACGCUCU | -0.373 ± 0.92 | -2.48 ± 0.78 |
| UUCGAGCAAUAUUACGCAAU |  | -2.93 ± 0.63 |

| Sequence | self-splicing fitness (ln) (37 °C) | self-splicing fitness (ln) (30 °C) |
| --- | --- | --- |
| GUGGAGCAAUAUUACGCGAG |  | -3.18 ± 0.61 |
| UGGAAGCAAUAUUACGUCUC | -2.47 ± 0.32 | -3.18 ± 0.62 |
| CUUUAGCAAUAUUACGGCCA |  | -3.58 ± 0.76 |
| CACCAGCAAUAUUACGUUAA | -2.37 ± 0.11 | -3.35 ± 0.095 |
| AUUGAGCAAUAUUACGCUGU | -1.22 ± 0.5 | -1.97 ± 0.25 |
| AAAUAGCAAUAUUACGGUCU | -0.388 ± 0.084 | 0.108 ± 0.076 |
| UGCGAGCAAUAUUACGCUAC |  | -4.8 ± 1 |
| CUCGAGCAAUAUUACGAAAA | -1.81 ± 0.69 |  |
| GAGGAGCAAUAUUACGAUUG |  | -3.08 ± 0.54 |
| UGGAAGCAAUAUUACGCGAC | -4.42 ± 1 |  |
| UGGUAGCAAUAUUACGUAAC | 0.289 ± 0.6 |  |
| AAGGAGCAAUAUUACGGAUC |  | -2.64 ± 0.36 |
| AAGUAGCAAUAUUACGCUAC | -2.47 ± 0.63 | -1.52 ± 0.71 |
| UGGAAGCAAUAUUACGGGAC | -3.26 ± 0.32 | -2.63 ± 0.21 |
| AUUUAGCAAUAUUACGAUAG | -2.42 ± 0.55 | -2.65 ± 0.76 |
| CAUUAGCAAUAUUACGGAUU | -1.23 ± 0.21 | -3.12 ± 0.2 |
| GUUGAGCAAUAUUACGCGAC | -2.64 ± 1.1 |  |
| AUCGAGCAAUAUUACGAAAC | -0.813 ± 0.69 |  |
| CUGCAGCAAUAUUACGGCCC | -1.55 ± 0.6 |  |
| UGUCAGCAAUAUUACGAGCG | 0.59 ± 0.11 | 0.308 ± 0.083 |
| GGAGAGCAAUAUUACGAAGG | -1.15 ± 0.84 | -3.59 ± 0.74 |
| GGAUAGCAAUAUUACGGUCC |  | -2.78 ± 0.51 |
| UCUGAGCAAUAUUACGCGCG |  | -3.51 ± 0.77 |

In a second layout: entries from further up
Sequence	self-splicing fitness (ln) (37 °C)	self-splicing fitness (ln) (30 °C)
UGGAAGCAAUAUUACGUCUC	-2.47 ± 0.32	-3.18 ± 0.62
CUUUAGCAAUAUUACGGCCA		-3.58 ± 0.76
CACCAGCAAUAUUACGUUAA	-2.37 ± 0.11	-3.35 ± 0.095
AUUGAGCAAUAUUACGCUGU	-1.22 ± 0.5	-1.97 ± 0.25
AAAUAGCAAUAUUACGGUCU	-0.388 ± 0.084	0.108 ± 0.076
UGCGAGCAAUAUUACGCUAC		-4.8 ± 1
CUCGAGCAAUAUUACGAAAA	-1.81 ± 0.69	
GAGGAGCAAUAUUACGAUUG		-3.08 ± 0.54
UGGAAGCAAUAUUACGCGAC	-4.42 ± 1	
UGGUAGCAAUAUUACGUAAC	0.289 ± 0.6	
AAGGAGCAAUAUUACGGAUC		-2.64 ± 0.36
